According to paper PMC8795745, “A GSH/CB Dual-Controlled Self-Assembled Nanomedicine for High-Efficacy Doxorubicin-Resistant Breast Cancer Therapy” (Frontiers in Pharmacology, 2022):

System: MCF-7 cells
Experiment: cells
Assay type: cell-based
Details: Homo sapiens, MCF7; MTT, mean ± SD, n=3
Procedure: MTT assay was performed as described previously.^[6^] Briefly, the cells (5 × 10^3 cells/well) were seeded in 96-well culture plates (Coring) and incubated overnight. Then cells were exposed to various concentrations of cyclic-1a and incubated at 37 °C for 72 h. After that, MTT stock solution (0.5 mg/mL) was added into each well and cultured for additional 4 h. The MTT treated cells were […] with 150 μL of DMSO. The absorbance in each individual well was measured by using a microplate spectrophotometer at […] (SpectraMax M2e, Molecular Devices Inc. USA).

SMILES: COc1cccc2c1C(=O)c1c(O)c3c(c(O)c1C2=O)C[C@@](O)(C(=O)CO)C[C@@H]3O[C@H]1C[C@H](N)[C@H](O)[C@H](C)O1 [doxorubicin, Doxorubicin]
- IC50: 5.07 ± 0.31 µM
